Data published in PMC6211770, “Structure-guided disruption of the pseudopilus tip complex inhibits the Type II secretion in Pseudomonas aeruginosa” (PLoS Pathogens, 2018).
These are yes or no findings as the source states them, for the method shown.

Key:
Test in all cases: SEC; each minor pseudopilin alone after removal of the Trx tag, Superdex 75, Buffer C (25 mM HEPES pH 7.0, 150 mM NaCl); both purified
[1] = target: XcpU (29–172), soluble form (P. aeruginosa) (UniProt Q00515)
[2] = target: XcpV (28–129), soluble form (P. aeruginosa) (UniProt Q00516)
[3] = target: XcpW (28–203), soluble form (P. aeruginosa) (UniProt Q00517)
[4] = target: XcpX (29–313), soluble form (P. aeruginosa) (UniProt Q00518)

B1: XcpU (29–172), soluble form (domain or fragment, UniProt Q00515 29-172)
chain: STGFASTSRELDSEAERLAGLIGVLTDEAVLDNREYGLRLERDAYQVLRYDEAKARWLPVARDSHRLPEWAELTFELDGQPLVLAGSKGEKEQKKGTDQPQLLILSSGELSPFRLRLAERGPEGRALSLSSDGFRLPRVEVARR
With B1 as the binder, how does the binding [1] read?
Its binding is “no binding”.

B2: XcpV (28–129), soluble form (domain or fragment)
chain: SASARSLQNASRLEDKTLAMWIADNRLNELQLEQTPPSSGRNQGELEFAGRRWEWRTQVDSTAEQDMRRVIVWVAAKPLGRERGSIEERAAARLVGFLGSQP
notes: minor pseudopilin XcpV (GspI) of Pseudomonas aeruginosa, soluble form, residues 28-129; The XcpVWX complex was digested in situ with chymotrypsin before crystallisation; the chains in PDB 5VTM may be shorter; also called XcpV^(GspI); GspI; source: E. coli BL21 (DE3), purified (Ni2+-NTA, TEV digestion, Superdex 75); not shown: thioredoxin (Trx), N-terminal, cleaved
For B2, which binding [2] is on record?
Its binding is “no binding”.

B3: XcpW (28–203), soluble form (domain or fragment, UniProt Q00517 28-203)
chain: RMFDSVMQTDQATRVQEQRMRELVRAMGALERDLTQAVERPVRDELGDNRGAFLSEGENDQIVEFTRGGWRNPLGQARSRLQRVRWSLSGETLERRYWLVLDRAQDSKPRVQQVLDGVTALSWRFLDKEHNWQGHWPTDEGSEEERLESLPLAVEMTLEHRHYGKLVRVWRLLDPP
For B3, which binding [3] is on record?
Its binding is “no binding”.

B4: XcpX (29–313), soluble form (domain or fragment, UniProt Q00518 29-313)
chain: IRQQLAIRSSANQLHVRQAWHYALGGERLAEAVLRRDLRQGGENTREPVDHLGEAWARPMTPFKLDDGGELRVRIEDPSGRFNLNGLVRKRKVKPDSVKQFRRLLATLGMKEEIVQGLPDRLADWLDADQNPQGEQGAEDNQYLLEAPAYRAANRSFKDVSELRLLKLSEADYRRLLPFVSALPEDAPLNVNTASVPVLAAMFEIDPGQAENIVDARGREGFQSKDDFTKHLTQLGSKTGNVSYAVGTRYFQVISEVSLGDRRQVLVSTLQRGKDGKIRVMARDM
B4 was tested. Which binding [4] did it give?
The binding was “no binding”.
